Data as given in publication PMC7753211.
Results are given in words; binding and its absence hold for the method and conditions named. Binding seen in cells or lysates may run through a third protein. Some entries that bind do so weakly or less than the wild type.

By UniProt entry, the sequences of proteins in these tests, tags left out.
UniProt Q16665: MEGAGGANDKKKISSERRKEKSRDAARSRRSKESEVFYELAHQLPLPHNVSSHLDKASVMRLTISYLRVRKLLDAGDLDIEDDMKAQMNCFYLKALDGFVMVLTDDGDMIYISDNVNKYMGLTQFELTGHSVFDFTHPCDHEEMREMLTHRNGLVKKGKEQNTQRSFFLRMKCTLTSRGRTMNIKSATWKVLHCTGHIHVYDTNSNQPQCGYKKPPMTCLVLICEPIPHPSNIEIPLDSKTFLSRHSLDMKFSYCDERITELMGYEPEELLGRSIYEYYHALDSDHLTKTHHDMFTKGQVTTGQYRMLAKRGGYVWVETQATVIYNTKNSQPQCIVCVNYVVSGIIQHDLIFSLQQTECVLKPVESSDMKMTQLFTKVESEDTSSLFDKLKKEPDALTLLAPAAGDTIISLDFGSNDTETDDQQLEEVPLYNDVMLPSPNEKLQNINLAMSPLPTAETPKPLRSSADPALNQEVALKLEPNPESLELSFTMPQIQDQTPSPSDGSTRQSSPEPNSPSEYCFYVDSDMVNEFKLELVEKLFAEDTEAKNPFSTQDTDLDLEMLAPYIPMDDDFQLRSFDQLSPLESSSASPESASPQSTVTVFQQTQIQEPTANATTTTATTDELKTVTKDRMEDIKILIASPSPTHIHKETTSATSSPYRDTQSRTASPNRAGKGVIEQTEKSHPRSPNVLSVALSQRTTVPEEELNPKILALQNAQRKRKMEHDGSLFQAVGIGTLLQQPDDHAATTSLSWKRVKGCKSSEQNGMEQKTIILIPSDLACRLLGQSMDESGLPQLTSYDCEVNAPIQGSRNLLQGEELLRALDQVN
UniProt Q9NYF8: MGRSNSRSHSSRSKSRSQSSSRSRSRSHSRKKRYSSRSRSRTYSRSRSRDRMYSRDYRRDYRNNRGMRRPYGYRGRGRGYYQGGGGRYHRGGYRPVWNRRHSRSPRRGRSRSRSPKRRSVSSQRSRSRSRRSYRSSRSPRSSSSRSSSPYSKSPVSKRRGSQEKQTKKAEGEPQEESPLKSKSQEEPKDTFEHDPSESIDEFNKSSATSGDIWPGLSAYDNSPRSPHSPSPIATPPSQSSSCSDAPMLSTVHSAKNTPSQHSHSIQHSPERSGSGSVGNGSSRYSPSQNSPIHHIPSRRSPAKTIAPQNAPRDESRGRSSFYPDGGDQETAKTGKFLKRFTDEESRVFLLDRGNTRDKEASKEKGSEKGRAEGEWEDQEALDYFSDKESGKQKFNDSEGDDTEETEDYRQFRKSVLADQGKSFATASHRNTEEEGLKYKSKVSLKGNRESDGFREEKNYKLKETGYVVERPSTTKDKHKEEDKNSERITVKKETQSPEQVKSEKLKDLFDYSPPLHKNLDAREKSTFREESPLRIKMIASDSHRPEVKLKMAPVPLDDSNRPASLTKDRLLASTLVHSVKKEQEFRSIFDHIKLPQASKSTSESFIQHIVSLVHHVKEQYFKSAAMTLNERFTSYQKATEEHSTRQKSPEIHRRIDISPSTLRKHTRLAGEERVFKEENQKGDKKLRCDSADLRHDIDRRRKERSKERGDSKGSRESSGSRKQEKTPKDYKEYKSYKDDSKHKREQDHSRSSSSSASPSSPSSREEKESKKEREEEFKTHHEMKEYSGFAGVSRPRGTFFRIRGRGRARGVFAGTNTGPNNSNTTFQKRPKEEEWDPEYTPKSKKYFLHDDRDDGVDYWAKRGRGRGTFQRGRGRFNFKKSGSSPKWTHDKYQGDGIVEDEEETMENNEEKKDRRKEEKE

Target: hypoxia-inducible factor-1α (human (endogenous in Bel-7404 and Huh7)) (UniProt Q16665)
Experiment: co-IP; lysates of Bel-7404 and Huh7 cells kept under hypoxia (1% O2) and treated with CK (20, 40, 60 µM) for 48 h; lysis buffer 50 mM Tris-HCl pH 7.5, 150 mM NaCl, 1% Nonidet P-40, 0.5% sodium deoxycholate; antibodies with Protein G Plus/Protein A agarose beads, 4°C overnight; western blot

**Q.** Which binding does the source give for “Bcl-2-associated transcription factor 1 (from UniProt Q9NYF8 1-920)” here?
**A.** binds
